The source of these data is US20080300209.

For some assays here: At least one result comes from cells or an extract, where the contact may be indirect. For some assays here: Negatives hold for the conditions tested. For some assays here: The comparison behind a weaker result is the experiment's own reference, which may not be listed here. For some assays here: Where a protein sequence is shown, tags need not be part of it. For some assays here: Construct, isoform or probe ends are uncertain for at least one entry.

The target in data set [1] is T1, NFATC1 (Homo sapiens) (UniProt O95644).
T1 sequence (looked up, limits assumed): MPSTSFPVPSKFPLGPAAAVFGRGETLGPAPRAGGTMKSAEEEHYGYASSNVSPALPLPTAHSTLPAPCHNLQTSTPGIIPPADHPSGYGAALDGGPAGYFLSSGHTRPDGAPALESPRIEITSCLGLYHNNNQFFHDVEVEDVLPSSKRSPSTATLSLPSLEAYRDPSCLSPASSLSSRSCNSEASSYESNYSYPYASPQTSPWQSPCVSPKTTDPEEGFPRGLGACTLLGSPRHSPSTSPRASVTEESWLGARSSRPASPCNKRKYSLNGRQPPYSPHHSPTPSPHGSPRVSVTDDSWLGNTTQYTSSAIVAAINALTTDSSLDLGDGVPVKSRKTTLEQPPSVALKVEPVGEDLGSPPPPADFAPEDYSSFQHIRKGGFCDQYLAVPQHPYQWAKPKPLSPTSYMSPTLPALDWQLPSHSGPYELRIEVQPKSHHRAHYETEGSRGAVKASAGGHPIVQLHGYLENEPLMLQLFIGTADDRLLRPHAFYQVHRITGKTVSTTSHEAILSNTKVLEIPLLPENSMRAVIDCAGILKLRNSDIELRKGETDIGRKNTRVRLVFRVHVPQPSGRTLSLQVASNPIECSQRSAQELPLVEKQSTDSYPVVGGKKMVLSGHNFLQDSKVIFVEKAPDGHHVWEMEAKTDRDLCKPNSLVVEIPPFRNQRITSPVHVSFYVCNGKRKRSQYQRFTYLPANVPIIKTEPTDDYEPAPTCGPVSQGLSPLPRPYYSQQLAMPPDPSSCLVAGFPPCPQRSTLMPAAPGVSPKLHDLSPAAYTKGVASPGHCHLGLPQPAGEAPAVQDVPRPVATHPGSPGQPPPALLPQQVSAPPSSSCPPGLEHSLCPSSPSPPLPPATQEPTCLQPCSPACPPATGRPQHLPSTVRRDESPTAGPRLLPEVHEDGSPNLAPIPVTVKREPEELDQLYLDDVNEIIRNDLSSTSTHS
Kind of data set: competition with a labelled probe. The following applies: competition ELISA vs 128 nM biotinylated SEQ 15; 2 uM competitor; protein in an extract. (In general: ELISA stands for enzyme-linked immunosorbent assay.)

Data set [2] relates to CREB/ATF (Homo sapiens). Kind of data set: competition with a labelled probe. As to conditions: competition ELISA vs 128 nM biotinylated SEQ 4; 2 uM competitor; protein in an extract.
The target of data set [3] is EGR1 (Homo sapiens) (UniProt P18146). The experiment in a line: competition with a labelled probe. As to conditions: relative affinity as high as SEQ 41; protein in an extract.
The target of data set [4] is EGR1 (endogenous, HL60 cells) (Homo sapiens) (UniProt P18146). The experiment in a line: activity in cells. As to conditions: protein in cells.
Data set [5] concerns the target SP1 (Homo sapiens) (UniProt P08047). The experiment in a line: binding assay. As to conditions: transcription factor ELISA, 128 nM probe; competed by 2 uM competitor; protein in an extract; label: biotin.
Data set [6] has as its system CREB/ATF (Homo sapiens). Kind of data set: binding assay. The following applies: transcription factor ELISA, 128 nM probe; competed by 2 uM competitor; protein in an extract; label: biotin.
For data set [7], the target named is WT1 (Homo sapiens) (UniProt P19544). The experiment in a line: binding assay. The following applies: transcription factor ELISA, 128 nM probe; bound poorly compared with hEGR1; protein in an extract; label: biotin (probe), unlabelled as competitor.
In data set [8] the target is EGR1 (Homo sapiens) (UniProt P18146). Kind of data set: binding assay. As to conditions: transcription factor ELISA, protein in an extract.
Another data set addresses RUNX1 (AML1) (UniProt Q01196). Kind of data set: binding assay. The following applies: transcription factor ELISA, 128 nM probe; competed by 2 uM competitor; protein in an extract; label: biotin.
Data set [9] deals with WT1 (Homo sapiens) (UniProt P19544). The experiment in a line: competition with a labelled probe. As to conditions: lack of affinity in competition ELISA, 512 nM competitor; protein in an extract.
In data set [10] the target is SP1 (Homo sapiens) (UniProt P08047). Kind of data set: competition with a labelled probe. The following applies: does not bind efficiently even at high excess (e.g. 512 nM competitor); protein in an extract.
For data set [11], the target named is T1, NFATC1 (Homo sapiens). The experiment in a line: binding assay. The following applies: transcription factor ELISA, 128 nM probe; competed by 2 uM competitor; protein in an extract; label: biotin.

For “GATGCGTGGGCGTTGACGTGGAAAATGC (double strand) [SEQ ID NO 45 composite EGR1/CREB/NFAT decoy]”, the binding result in the data set with NFATC1 (Homo sapiens) [1], in the data set on CREB/ATF (Homo sapiens) [2] and with EGR1 (Homo sapiens) [3] was “binds” throughout. For the same sequence, in [4] (CDK5R1 inhibition in HL60 cells, dose-response overlapping SEQ 41), the “activity on this sequence” value is given as “active”.
As to “GTTATGGCGGGGCGGGGCGGGGCCGGGCGGTTTAC (double strand) [SEQ ID NO 11 SP1 decoy]”, in the data set with SP1 (Homo sapiens) [5], the binding result was “binds”.
For the sequence “GCCTCCCTGAGCTCATTGACGTATCTCGG (double strand) [SEQ ID NO 4 CREB/ATF decoy]”, the binding result in the data set with CREB/ATF (Homo sapiens) [6] is reported as “binds”.
As to “GTTATGCGTGGGCGTAGATGCGGGGGCGTTATAG (double strand) [SEQ ID NO 40 double EGR1 site decoy]”, the binding result with WT1 (Homo sapiens) [7] was “binds more weakly”; in the data set with EGR1 (Homo sapiens) [8] (streptavidin capture, 5, 10 or 15 ug nuclear extract, label: biotin (probe), unlabelled as competitor), “binds”.
“GGCAATGTGGTTTTAGTGTGGTTTTACGG (double strand) [SEQ ID NO 12 RUNX1 decoy]”: the binding result with RUNX1 (AML1) is given as “binds”.
Consider “GTATGCGTGGGCGGTGGGCGTAG (double strand) [SEQ ID NO 42 fused EGR1 sites decoy]”, for which the binding result with WT1 (Homo sapiens) [9] and with SP1 (Homo sapiens) [10] was “no binding” throughout.
For the sequence “GTTCTTGGAAAATAAATGGAAAATAGTGGAAAATAAGTCG (double strand) [SEQ ID NO 15 NFAT decoy]”, the binding result with NFATC1 (Homo sapiens) [11] is listed as “binds”.
With “GTTATGCGTTTGTAGATGCTTTCGTTATAG / CTATTTCGAAACGATCTACATTGGCATAAC [SEQ ID NO 43/46 mismatched mutated control]”, the binding result in the data set with EGR1 (Homo sapiens) [8] (lack of EGR1 binding, label: biotin, variant of SEQ ID NO 40 double EGR1 site decoy) is “no binding”. For the same sequence, the “activity on this sequence” value in data set [4] (no inhibition of CDK5R1 expression in HL60 cells, variant of SEQ ID NO 40 double EGR1 site decoy) is listed as “not active”.
